{"source": "patent US20100015058A1", "about": "(STANFORD UNIVERSITY, priority 2008, published 2010)", "assay": "general procedure: Fmoc solid-phase peptide synthesis; Rink Amide MBHA resin; TSTU", "conditions": "for step yield: late stage modification step; for conjugation yield: conjugation step", "key": {"[1]": {"conditions": "head-to-tail ring, sequence written open"}}}
{"substance": "FB-PEG3-Glu-RGD-BBN", "values": [{"measurement": "step yield", "setting": "[1]", "result": 76, "unit": "%"}]}
{"substance": "3,3′-(2-aminoethylazanediyl)dipropanoic acid (AEADP)-RGD-BBN hetero dimmer (III)", "values": [{"measurement": "conjugation yield", "setting": "overall, two steps, head-to-tail ring, sequence written open", "result": 32, "unit": "%"}]}
{"substance": "PEG3-Glu-RGD-BBN", "values": [{"measurement": "conjugation yield", "setting": "[1]", "result": 58, "unit": "%"}]}
{"substance": "FB-AEADP-RGD-BBN", "values": [{"measurement": "step yield", "setting": "[1]", "result": 85, "unit": "%"}]}
{"substance": "NOTA-c(RGDyK)", "values": [{"measurement": "conjugation yield", "result": 61, "unit": "%"}]}
